Results deposited as PubChem BioAssay AID1259308 (NCATS, 2017)
Test: 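Candidate targets for better recombinant protein yield in mammalian cells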 (primary screen). Cells: human HEK293 embryonic kidney cells stably expressing firefly luciferase (HEK-CMV-Luc2-Hygro). Reagent: single siRNA against human genes, 0.8 pmol siRNA per well. Timing: 72 h. Measurement: 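Luciferase light (ONE-Glo) measured on one replicate plate set and viability (CellTiter-Glo) on the other, scaled to a negative control siRNA, with robust z-scores and luciferase per cell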. Reading the numbers: total luciferase, z-score and total luciferase, % of control: higher = more reporter protein produced. Call rule: 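Active when the median/MAD z-score for overall luciferase is greater than 3; a gene was taken forward for validation with new siRNAs if at least two of its three siRNAs passed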. Calls: active = raised luciferase; inactive = no rise.
The whole screen tested about 59,000 reagents; this is an unselected part. About 1,510 of them (2.6%) were called active. 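Calls use total luciferase alone and ignore viability, so some active siRNAs may act by altering cell number.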 A number with no mark means an inactive call. Reagents against one gene are numbered here. Further read-outs or replicates are left out here.

For CDR2L (cerebellar degeneration related protein 2 like) #1, what was measured?
total luciferase, z-score: -0.486; total luciferase, % of control: 72.2

For CDR2L (cerebellar degeneration related protein 2 like) #2, how do the results read?
total luciferase, z-score: -0.648; total luciferase, % of control: 69

For CDR2L (cerebellar degeneration related protein 2 like) #3, how do the results read?
total luciferase, z-score: -0.384; total luciferase, % of control: 74.3

For RHCG (Rh family C glycoprotein) #1, what was measured?
total luciferase, z-score: -0.435; total luciferase, % of control: 73.2

For RHCG (Rh family C glycoprotein) #2, what does the deposit list?
total luciferase, z-score: 2.36; total luciferase, % of control: 129

How did the screen score RHCG (Rh family C glycoprotein) #3?
total luciferase, z-score: -0.547; total luciferase, % of control: 71

Targets listed so far whose target name begins with C or c:
CDR2L (cerebellar degeneration related protein 2 like) #1 — total luciferase, z-score: -0.486; total luciferase, % of control: 72.2
CDR2L (cerebellar degeneration related protein 2 like) #2 — total luciferase, z-score: -0.648; total luciferase, % of control: 69
CDR2L (cerebellar degeneration related protein 2 like) #3 — total luciferase, z-score: -0.384; total luciferase, % of control: 74.3

The results go on:
For STARD13 (StAR related lipid transfer domain containing 13) #1, how do the results read?
total luciferase, z-score: -0.0329; total luciferase, % of control: 81.2

Which result is listed for STARD13 (StAR related lipid transfer domain containing 13) #2?
total luciferase, z-score: 1.39; total luciferase, % of control: 109

With STARD13 (StAR related lipid transfer domain containing 13) #3, what does the deposit list?
total luciferase, z-score: 0.126; total luciferase, % of control: 84.4

Which result is listed for MPIG6B (megakaryocyte and platelet inhibitory receptor G6b) #1?
total luciferase, z-score: -0.0814; total luciferase, % of control: 80.3

What is on record for MPIG6B (megakaryocyte and platelet inhibitory receptor G6b) #2?
total luciferase, z-score: 0.0678; total luciferase, % of control: 83.2

For MPIG6B (megakaryocyte and platelet inhibitory receptor G6b) #3, how do the results read?
total luciferase, z-score: -1.1; total luciferase, % of control: 60
